PubChem BioAssay AID504744 | Drosophila RNAi Screening Center | 2011
Aim: 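Uncover factors, including feedback loops, that control dAkt activation in fly cells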 (primary screen). Cells: Drosophila Kc167 cells. Knock-down reagent: long dsRNA against Drosophila genes, 250 ng dsRNA per well of a 384-well plate. Timing: 3 days of knock-down, then overnight serum-free starvation before stimulation. Conditions: bovine insulin at 387 nM for 10 minutes after 12 h without serum. Detection: 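Per-well phospho-dAkt level from an in-cell fluorescent antibody stain, divided by a DNA-dye signal; log2 residuals turned into z-scores that take cell number into account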. Active means: 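Hit in the insulin screen when the two-replicate mean z-score is more extreme than plus or minus 2.5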.
The screen tested about 23,000 reagents; shown is a random part of those that have a named target and a result. Of all reagents, 98 (0.43%) got an active call. 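Only hit calls are given; the phospho-dAkt signals, z-scores and hit direction were not deposited.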 Names joined by + are all predicted targets of the reagent.

Arfrp1 [DRSC18417]: outcome = active
crim [DRSC10573]: outcome = inactive
Rbp9 [DRSC00416]: outcome = inactive
Rbp9 [DRSC00779]: outcome = inactive
CG30034 (retired record) [DRSC05288]: outcome = inactive
Wwox [DRSC03030]: outcome = inactive
Wwox [DRSC22872]: outcome = inactive
CG2444 [DRSC19846]: outcome = inactive
Grl40a [DRSC03677]: outcome = inactive
CG8545 [DRSC07210]: outcome = inactive
CG6209 [DRSC06968]: outcome = inactive
Vha68-1 [DRSC03470]: outcome = inactive
Ak3 [DRSC16075]: outcome = inactive
TpnC25D [DRSC02965]: outcome = inactive
CG31693 [DRSC03674]: outcome = inactive
Ssl [DRSC04657]: outcome = inactive
Eig71Ek [DRSC11158]: outcome = inactive
His-Psi:CR31616 + His-Psi:CR31615 [DRSC03760]: outcome = inactive
BomS6 [DRSC21676]: outcome = inactive
stx [DRSC18442]: outcome = inactive
stx [DRSC18443]: outcome = inactive
RpL8 [DRSC08532]: outcome = inactive
RpL8 [DRSC08695]: outcome = inactive
